Data published in patent US6528620B1, “Sid-polyamide fusions: a potent method of regulating gene expression” (University of Utah Research Foundation, priority 1999, dated 2003).
Results are given in words; binding and its absence hold for the method and conditions named. Some results given as binding are weak or reduced against the parent protein; the word gives no strength.

Sequences of proteins named here, by UniProt entry; tags and fusion partners are left off. A change or cut given only in a name is not applied to a line headed by its entry.
UniProt Q05195: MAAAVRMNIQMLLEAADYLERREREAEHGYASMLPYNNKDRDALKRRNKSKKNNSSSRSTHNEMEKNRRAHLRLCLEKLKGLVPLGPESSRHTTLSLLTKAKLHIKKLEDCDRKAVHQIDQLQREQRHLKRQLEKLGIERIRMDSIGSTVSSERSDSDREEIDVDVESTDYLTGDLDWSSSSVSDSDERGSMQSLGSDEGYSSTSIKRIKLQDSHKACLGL

Experiments:
[1] = target: GST-PAH2, a GST fusion to the PAH2 domain of mSIN3A [GST: P08515]; experiment: far Western blot: 35S-labelled probe on PVDF-immobilised GST-PAH2
[2] = target: GST-PAH2, a GST fusion to the PAH2 domain of mSIN3A [GST: P08515]; experiment: far Western blot, probe purified under denaturing conditions and renatured
[3] = target: GST-PAH2, a GST fusion to the PAH2 domain of mSIN3A [GST: P08515]; experiment: far Western blot, probe purified under native conditions

Measured: binding

Mad1His (from UniProt Q05195 1-221)
binds: all assays above
